## Primary screen of a compound library

Amino acid sequences for entries named in this document (tags omitted). Residues count along the entry.
UniProt I6X8D2, whole entry: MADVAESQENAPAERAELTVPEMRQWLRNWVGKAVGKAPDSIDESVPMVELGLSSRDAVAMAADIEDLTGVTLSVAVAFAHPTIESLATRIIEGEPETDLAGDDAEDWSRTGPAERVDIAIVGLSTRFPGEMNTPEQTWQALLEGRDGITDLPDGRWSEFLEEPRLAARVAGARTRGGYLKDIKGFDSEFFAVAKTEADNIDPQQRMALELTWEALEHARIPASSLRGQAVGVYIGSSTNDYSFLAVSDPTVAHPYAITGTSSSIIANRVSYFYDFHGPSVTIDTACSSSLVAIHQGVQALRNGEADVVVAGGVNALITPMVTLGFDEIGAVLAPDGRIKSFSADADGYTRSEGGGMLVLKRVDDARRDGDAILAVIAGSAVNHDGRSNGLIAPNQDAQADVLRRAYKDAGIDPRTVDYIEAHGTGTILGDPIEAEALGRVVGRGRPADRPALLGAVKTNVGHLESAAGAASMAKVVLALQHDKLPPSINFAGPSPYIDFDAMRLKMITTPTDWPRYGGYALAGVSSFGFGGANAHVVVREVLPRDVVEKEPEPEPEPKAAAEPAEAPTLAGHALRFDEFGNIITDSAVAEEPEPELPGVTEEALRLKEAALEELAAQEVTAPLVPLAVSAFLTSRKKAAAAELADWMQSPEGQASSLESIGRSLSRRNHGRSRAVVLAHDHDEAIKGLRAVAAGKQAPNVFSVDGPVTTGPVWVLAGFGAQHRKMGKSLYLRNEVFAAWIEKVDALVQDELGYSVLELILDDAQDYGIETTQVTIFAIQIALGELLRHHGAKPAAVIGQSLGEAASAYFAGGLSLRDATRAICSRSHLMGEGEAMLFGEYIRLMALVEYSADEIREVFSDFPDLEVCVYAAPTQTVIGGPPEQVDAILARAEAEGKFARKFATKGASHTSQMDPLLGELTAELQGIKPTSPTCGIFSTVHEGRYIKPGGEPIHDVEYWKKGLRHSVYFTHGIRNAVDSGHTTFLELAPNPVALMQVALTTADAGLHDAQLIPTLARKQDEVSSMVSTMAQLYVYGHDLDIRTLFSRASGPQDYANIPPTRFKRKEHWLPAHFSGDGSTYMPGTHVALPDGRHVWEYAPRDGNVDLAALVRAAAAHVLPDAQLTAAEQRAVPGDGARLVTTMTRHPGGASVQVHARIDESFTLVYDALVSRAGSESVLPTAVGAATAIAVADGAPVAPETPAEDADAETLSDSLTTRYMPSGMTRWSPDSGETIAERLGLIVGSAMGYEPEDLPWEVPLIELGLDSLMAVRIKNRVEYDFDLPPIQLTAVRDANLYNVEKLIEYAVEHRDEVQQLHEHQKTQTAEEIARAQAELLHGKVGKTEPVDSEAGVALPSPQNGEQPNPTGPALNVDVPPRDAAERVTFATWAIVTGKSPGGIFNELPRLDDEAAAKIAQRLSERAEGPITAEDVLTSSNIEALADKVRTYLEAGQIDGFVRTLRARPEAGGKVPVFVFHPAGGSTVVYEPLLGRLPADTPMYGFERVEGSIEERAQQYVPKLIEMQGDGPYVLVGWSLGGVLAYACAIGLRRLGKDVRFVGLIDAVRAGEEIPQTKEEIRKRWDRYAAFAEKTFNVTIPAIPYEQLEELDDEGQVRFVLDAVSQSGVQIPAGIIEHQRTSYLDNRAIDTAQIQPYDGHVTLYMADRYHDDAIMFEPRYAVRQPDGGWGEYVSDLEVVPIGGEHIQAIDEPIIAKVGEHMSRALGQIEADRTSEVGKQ
UniProt P9WNZ1, whole entry: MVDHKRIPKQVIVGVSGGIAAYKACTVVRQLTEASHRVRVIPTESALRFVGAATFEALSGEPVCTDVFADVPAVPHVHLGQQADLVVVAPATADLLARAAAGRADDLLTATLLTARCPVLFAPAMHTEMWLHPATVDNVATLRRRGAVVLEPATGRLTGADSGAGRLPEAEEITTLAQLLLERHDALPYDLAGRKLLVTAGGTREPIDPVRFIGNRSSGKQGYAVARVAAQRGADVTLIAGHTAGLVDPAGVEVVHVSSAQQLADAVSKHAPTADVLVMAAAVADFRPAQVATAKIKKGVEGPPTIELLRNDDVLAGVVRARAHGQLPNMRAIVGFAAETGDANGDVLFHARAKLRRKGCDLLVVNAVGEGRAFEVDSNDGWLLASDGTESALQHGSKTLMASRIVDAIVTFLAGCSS
UniProt P9WFT3, whole entry: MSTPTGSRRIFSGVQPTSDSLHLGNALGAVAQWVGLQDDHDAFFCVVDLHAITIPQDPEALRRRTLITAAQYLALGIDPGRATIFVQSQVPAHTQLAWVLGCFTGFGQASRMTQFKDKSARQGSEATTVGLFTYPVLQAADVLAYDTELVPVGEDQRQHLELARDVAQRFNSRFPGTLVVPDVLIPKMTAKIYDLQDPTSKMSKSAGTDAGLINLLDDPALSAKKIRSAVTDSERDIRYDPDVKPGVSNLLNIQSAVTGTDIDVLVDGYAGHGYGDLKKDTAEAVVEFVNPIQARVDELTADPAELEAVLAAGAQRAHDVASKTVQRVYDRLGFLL
UniProt A4I591, 1-473: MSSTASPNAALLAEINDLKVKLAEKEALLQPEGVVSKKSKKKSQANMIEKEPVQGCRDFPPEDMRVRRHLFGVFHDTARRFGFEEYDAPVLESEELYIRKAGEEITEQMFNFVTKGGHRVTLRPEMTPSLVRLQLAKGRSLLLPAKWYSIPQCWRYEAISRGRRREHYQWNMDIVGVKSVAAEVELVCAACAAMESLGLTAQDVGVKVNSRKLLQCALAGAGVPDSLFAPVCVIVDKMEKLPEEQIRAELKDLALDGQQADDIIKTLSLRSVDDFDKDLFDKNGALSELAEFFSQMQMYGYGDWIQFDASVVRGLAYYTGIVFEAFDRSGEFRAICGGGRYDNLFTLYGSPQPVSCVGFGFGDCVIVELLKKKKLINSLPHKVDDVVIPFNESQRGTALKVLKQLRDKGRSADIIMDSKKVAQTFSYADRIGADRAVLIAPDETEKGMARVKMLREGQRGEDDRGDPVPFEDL
UniProt Q4DA54, 1-478: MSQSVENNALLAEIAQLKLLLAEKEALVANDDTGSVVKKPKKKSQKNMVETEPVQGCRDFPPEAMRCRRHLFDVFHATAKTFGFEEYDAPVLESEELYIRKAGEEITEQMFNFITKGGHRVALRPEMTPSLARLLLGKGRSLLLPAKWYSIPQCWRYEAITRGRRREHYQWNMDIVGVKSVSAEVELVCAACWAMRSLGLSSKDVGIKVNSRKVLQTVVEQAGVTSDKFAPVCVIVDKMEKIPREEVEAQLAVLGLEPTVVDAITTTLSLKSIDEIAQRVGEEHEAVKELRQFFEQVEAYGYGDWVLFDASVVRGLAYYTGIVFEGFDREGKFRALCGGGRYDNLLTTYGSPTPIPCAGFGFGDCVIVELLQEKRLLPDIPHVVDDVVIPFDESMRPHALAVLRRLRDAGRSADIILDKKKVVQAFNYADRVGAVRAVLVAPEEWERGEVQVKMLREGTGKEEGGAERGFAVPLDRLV

Data taken from ChEMBL document CHEMBL3988442, “University of Dundee, Small-Polar-MMV Screening Library” (2021).

Pks13 thioesterase: 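Enzyme assay of the thioesterase domain of polyketide synthase 13; the read-out is not stated. Target: Polyketide synthase Pks13, Mycobacterium tuberculosis (UniProt I6X8D2). Tested at 30 µM. Higher reads as stronger inhibition (inferred from which compounds were picked for retests). Of about 67,000 compounds tested this way, about 300 (0.46%) reached 50% or more in at least one test.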
Toxoplasma: 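Assay of Toxoplasma gondii numbers, read through their beta-galactosidase reporter with a colour substrate. Concentration: 10 µM. The record gives no direction; the compounds picked for IC50 retests had high values, so higher reads as fewer parasites. About 67,000 compounds were tested under these conditions; 0.38% (about 260) showed 50% or more at least once.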
CoaBC: 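Coenzyme A biosynthesis protein CoaBC, Mycobacterium tuberculosis (UniProt P9WNZ1). Enzyme assay of CoaBC with a phosphate dye (Biomol Green) read at 650 nm. Compounds at 30 µM. Direction is inferred from only a few compounds that gave an IC50; most scored high, so higher reads as stronger inhibition. Most strong results did not repeat in a second test. Of about 67,000 compounds tested this way, about 40 (0.06%) reached 50% or more in at least one test.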
MtTrpRS: 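Enzyme assay of tryptophanyl-tRNA synthetase; the read-out is not stated. Target: Tryptophan-tRNA ligase, Mycobacterium tuberculosis (UniProt P9WFT3). Concentration: 10 µM. Direction is not recorded; retested compounds ran higher, which suggests that high means inhibition. Size under these conditions: about 65,000 compounds, about 64 of them at 50% or above in at least one test.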
LiHisRS: 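Histidine-tRNA ligase, Leishmania infantum (UniProt A4I591). Enzyme assay of histidyl-tRNA synthetase; the read-out is not stated. Tested at 30 µM. Higher reads as stronger inhibition (inferred: compounds with an IC50 in retests scored well above the rest). The assay is labelled LdHisRS but filed under L. infantum. Of about 69,000 compounds tested this way, about 410 (0.6%) reached 50% or more in at least one test.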
TcHisRS: 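Enzyme assay of histidyl-tRNA synthetase; the read-out is not stated. Target: Histidine-tRNA ligase, Trypanosoma cruzi CL Brener (UniProt Q4DA54). Concentration: 30 µM. Direction is inferred from retests: higher values go with stronger inhibition. About 69,000 compounds were tested under these conditions; 0.045% (about 31) showed 50% or more at least once.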

Each number is a percent effect as filed.
The controls that fix the scale are not given in the record; negative values are as filed.
The compounds are a random part of those screened.
Two or more numbers in one place are separate tests of the same structure; such repeats can differ widely.
A dash means the value is not listed here; it may have been measured.

SMILES,Pks13 thioesterase,Toxoplasma,CoaBC,MtTrpRS,LiHisRS,TcHisRS
Cc1cnn(CC2CN(Cc3nnc(-c4occc4C)o3)CCO2)c1 (centres undefined),41.36,1.939,12.82,-2.624,18.46,-4.981
CNc1nc(C)c(C(=O)NCC(C)(C)N2CCCCC2)s1,6.314,6.581,-5.34,3.312,10,8.812
COCC(=O)NCCC(=O)N1CCN(S(=O)(=O)c2ccc(Br)cc2)CC1,9.578,-0.7275,-5.835,-1.21,5.128,5.056
CN(C)Cc1nn(C)c2c1CCN(C(=O)c1cnccn1)C2.O=C(O)C(F)(F)F,-,4,-,-,-,-
CC(=O)Nc1nc(CNc2ccccc2CCC(F)(F)F)cs1,-14.04,1.723,7.812,0.5663,5.618,-0.5181
O=C(NCc1nn(-c2ccccc2)c2c1CCC2)NC1CC1,-12.84,-12.26,6.477,3.935,4.255,0.7634
CNS(=O)(=O)CC1CCCN1c1ccc(Cl)cn1 (centres undefined),-6.753,0.9363,1.739,-0.289,3.665,9.091
C=C(C)COCCNC(=O)C1CCCN1C(C)=O (centres undefined),-11.22,10.48,2.892,-2.478,19.18,-1.527
O=C(NC1CC1)N1CC[C@H](OCC2CC2)[C@@H]1Cc1cccnc1,3.649,-,-1.935,0.4647,8.333,9.453
CC(C)n1cc(CN2CCCN(C(=O)c3ccc[nH]3)CC2)cn1,-9.577,10.59,10.97,-1.501,19.23,4.813
CCOC(C)C(=O)N1CCN(S(C)(=O)=O)CC1 (centres undefined),0.8303,4.291,-1.152,7.841,19.75,9.202
Cn1cc(C2CC(=O)NC23CCN(Cc2nccs2)CC3)cn1 (centres undefined),-2.788,18.23,-12.7,-6.826,0,3.81
N#Cc1ccccc1CN1CCC(CN2CCOCC2)C1 (centres undefined),2.718,4.003,-3.641,-0.432,7.143,2.97
Cc1ccc(C(N)c2cccc(S(C)(=O)=O)c2)cc1 (centres undefined),-4.839,2.871,7.432,6.166,17.57,4.151
CCc1nnc(SCc2nonc2C)n1C1CC1,-11.01,3.564,8.763 & 22.78,1.75,4.301,1.554
CCCC1CCN(C(=O)c2coc(COc3ccc(OC)cc3)n2)C1 (centres undefined),-,7.948,7.358,0.3623,15.2,1.508
CS(=O)(=O)Cc1ccc(OCc2ccc(F)cc2)cc1,0.7797,-1.51,-,-20.08,29.58,0.6369
Cc1ccc(NC2CCN(C(=O)CCCc3ccccn3)CC2)cc1,-4.339,-13.27,6.746,-2.916,8.333,4.082
O=C(O)C(F)(F)F.[H][C@@]12CCN(Cc3c(C)noc3C)C[C@]1([H])[C@H](C(=O)NCC1CC1)CCO2,-,7.549,-,-,-,-
c1csc(CN2CCCN(c3ccc(Cn4ccnc4)cn3)CC2)c1,-28.96,9.677,-4.207,4.542,29.41,8.04
CCN1CCC(CNCc2c[nH]nc2C(C)(C)C)C1 (centres undefined),-27.24,-,-1.118,-2.887,12.28,7.736
COCc1n[nH]/c(=N\C(=O)c2c3c(nc4onc(C)c24)CCC3)s1,-5.143,-,-1.094,-2.572,28.26,-5.941
CCS(=O)(=O)N1CCC2(CN(Cc3ccc(C)o3)C2)C1,-3.721,9.815,3.337,-4.776,1,2.041
CC(C)c1nc(CN2CCCN(Cc3nnc(C4CC4)o3)CC2)no1,-11.99,10.85,-0.3911,-0.5912,20.27,-1.132
O=C(c1cccc2[nH]ccc12)N1CCC2(CCOC2)C1 (centres undefined),-13.69,-0.2582,-5.314,-2.545,9.091,9.677

The first 3 entries again:

* Cc1cnn(CC2CN(Cc3nnc(-c4occc4C)o3)CCO2)c1 (centres undefined) : Pks13 thioesterase: 41.36%; Toxoplasma: 1.939%; CoaBC: 12.82%; MtTrpRS: -2.624%; LiHisRS: 18.46%; TcHisRS: -4.981%
* CNc1nc(C)c(C(=O)NCC(C)(C)N2CCCCC2)s1 : Pks13 thioesterase: 6.314%; Toxoplasma: 6.581%; CoaBC: -5.34%; MtTrpRS: 3.312%; LiHisRS: 10%; TcHisRS: 8.812%
* COCC(=O)NCCC(=O)N1CCN(S(=O)(=O)c2ccc(Br)cc2)CC1 : Pks13 thioesterase: 9.578%; Toxoplasma: -0.7275%; CoaBC: -5.835%; MtTrpRS: -1.21%; LiHisRS: 5.128%; TcHisRS: 5.056%